Measured values taken from PMC12040169 (PLOS Biology, 2025).
The other results are listed elsewhere or left out.

Test system: T1, CTL2-GFP (C. trachomatis L2/434/Bu, GFP-expressing)
T1 construct: L2/434/Bu, GFP-expressing
Design: species or system HeLa; Intracellular C. trachomatis growth in HeLa cells, bulk GFP fluorescence relative to DMSO
Settings: bulk GFP, single well; 28.5 h, 10 µM; inhibitor

Structure (SMILES) | % of control remaining
Cc1cc(C(=O)NCc2ccccc2)n[nH]1 [CBK200198] | 161.445%
NS(=O)(=O)c1ccc(CCNc2ncnc3c2c(-c2ccccc2)cn3-c2ccc(F)cc2)cc1 [CBK266478] | 84.2376%
CCNc1cncc(-c2ccc(N)cc2)n1 [CBK065658] | 122.026%
O=C(C[C@@H]1CCNC[C@@H]1Cc1cc(-c2ccc(F)cc2)on1)Nc1ccccc1 [CBK288801] | 120.971%
Cc1cc(NC(=O)Cn2nc(C(F)(F)F)c(Cl)c2C)no1 [CBK018709] | 116.386%
CCCC1c2cccn2CCN1S(=O)(=O)c1ccc2[nH]c(=O)[nH]c(=O)c2c1 (stereo not drawn) [CBK286388] | 105.587%
Cc1cc(C(F)(F)F)c2c(NC/C=C/c3ccco3)n[nH]c2n1 [CBK283651] | 95.3874%
O=C1CN(S(=O)(=O)c2ccc(F)cc2Cl)CCN1 [CBK051081] | 131.011%
CN(C)CCN(C)Cc1ccccc1O [CBK261875] | 100%
Cc1cc(Cl)ccc1OCC(=O)Nc1nnc[nH]1 [CBK287940] | 148.134%
CC1CCN(C(=O)Cn2ncn3c(cc4ccsc43)c2=O)CC1 [CBK284190] | 113.687%
CCN1CCN(C(=O)CN(CCc2ccccc2)S(C)(=O)=O)CC1 [CBK266666] | 104.388%
N#Cc1cccc(C(=O)NCC2(N3CCOCC3)CCSC2)c1 (stereo not drawn) [CBK306344] | 110.71%
COc1ccccc1-c1nnc(NC(=O)Cc2cccs2)s1 [CBK287361] | 140.087%
O=C(O)CC(NC=C1C(=O)CCCC1=O)C(=O)O (stereo not drawn) [CBK261997] | 100%
COCCc1nc(Cc2ccc(OC)cc2)nn1CC1COCCO1 (stereo not drawn) [CBK307521] | 117.91%
Cc1ccccc1CN(C)C(C)C(=O)Nc1ccc(S(N)(=O)=O)cc1 (stereo not drawn) [CBK304589] | 119.065%
O=C(c1ccncc1)c1ccc(N2CCN(C3CC(=O)N(Cc4cccs4)C3=O)CC2)cc1 (stereo not drawn) [CBK269074] | 123.051%
COc1ccccc1OCC(=O)N1CCNC1=O [CBK288201] | 158.675%
COc1ccccc1C/C(N)=N/OC(=O)COc1ccc2ccccc2c1 [CBK263730] | 124.333%
CC[C@H]1CN(C(=O)Nc2cccc(C(F)(F)F)c2)CC[C@H]1CC(=O)O [CBK288776] | 130.728%
Brc1cccc(-c2cn3ccnc3c(NC3CCOCC3)n2)c1 [CBK066291] | 115.063%
O=c1[nH]c(=O)n([C@@H]2O[C@H](CO)[C@H](O)C2O)cc1I (stereo partly drawn) [CBK201304] | 172.706%
O=S(=O)(c1cc(Cl)sc1Cl)N1CCN(Cc2ccc3c(c2)OCO3)CC1 [CBK074743] | 129.098%
O=C1NC(=O)C(CC(=O)N2CCC(Cn3cncn3)(C3CCCCC3)CC2)N1 (stereo not drawn) [CBK136808] | 99.4125%
Cc1cnc(Cl)c2ncn([C@H]3C[C@@H](O)[C@@H](CO)O3)c12 [CBK201234] | 163.592%

As entered above:
% of control remaining with CCN1CCN(C(=O)CN(CCc2ccccc2)S(C)(=O)=O)CC1 [CBK266666] reads 104.388%
% of control remaining with O=C1NC(=O)C(CC(=O)N2CCC(Cn3cncn3)(C3CCCCC3)CC2)N1 (stereo not drawn) [CBK136808] reads 99.4125%
% of control remaining with O=c1[nH]c(=O)n([C@@H]2O[C@H](CO)[C@H](O)C2O)cc1I (stereo partly drawn) [CBK201304] reads 172.706%

Following part:

Structure (SMILES) | % of control remaining
O=C(COc1ccccc1[N+](=O)[O-])Nc1cnc(-c2cccc(C(F)(F)F)c2)c(-c2ccco2)n1 [CBK036899] | 143.953%
Cc1cc(S(=O)(=O)N2CCN(c3ccc(Cl)cc3)CC2)c(C)cc1Cl [CBK044965] | 81.2183%
CC(CCc1ccccc1)NC1CCCc2c1[nH]c1ccc([N+](=O)[O-])cc21 (stereo not drawn) [CBK262875] | 36.4876%
CCCCSc1nc(N)cc(N2CCOCC(CN(C)C)C2)n1 (stereo not drawn) [CBK306659] | 120.446%
COc1cc(-c2nccnc2NCc2ccccn2)cc(OC)c1OC [CBK036936] | 130.359%
N#CC(c1ccc(O)cc1)N1CCCCC1 (stereo not drawn) [CBK028556] | 140.408%
COc1ccc2[nH]nc(CN3CCCC(c4cc(O)nc(C)n4)C3)c2c1 (stereo not drawn) [CBK306703] | 95.3598%
Cc1cc(Cc2ccccc2Cl)cc(C2CCCN(CC(=O)N(C)C)C2)n1 (stereo not drawn) [CBK286262] | 122.797%
CCc1nn2c(O)cc(C)nc2c1-c1cccs1 [CBK283860] | 122.565%
O=C(O)CCC(=O)N1CCN(Cc2ccc(Cl)cc2)CC1 [CBK286852] | 92.1665%
NCCNc1ccc(C(=O)Nc2cccc(Cl)c2)cc1[N+](=O)[O-] [CBK263953] | 78.339%
COc1ccc(S(=O)(=O)N2CCC(C(=O)O)(c3ccccc3)CC2)cc1 [CBK267572] | 118.259%
CCN1C(=O)C2(CC(=O)N(Cc3ccc(OC)c(OC)c3)C2=O)c2cc(C)ccc21 (stereo not drawn) [CBK075172] | 113.359%
Cc1nc(-c2ccccc2)sc1CNC(=O)CCc1c[nH]c2ccccc12 [CBK092373] | 100%
Cc1ccc(C(=O)N2CCC(c3n[nH]c4ncccc34)CC2)s1 [CBK284911] | 124.709%
Cc1ccccc1OCc1nnc(SCC(=O)NC2CCCCC2)n1C [CBK265817] | 100%
O=C(Nc1nccs1)c1ccc2[nH]ccc2c1 [CBK161731] | 116.233%
CCc1nc2c(OCCC3CCCCC3)cccn2c1N(C)C(=O)CC(C)C [CBK147671] | 111.684%
O=S(=O)(CCSc1nc2ccccc2s1)c1nc2ccccc2s1 [CBK026908] | 93.3804%
Nc1cccc(Sc2ccc(C(F)(F)F)cn2)c1 [CBK089606] | 93.7051%
COCCNCCOc1c(Cl)cc(C)cc1Br [CBK265087G] | 104.712%
O=C(C[C@@H]1O[C@H](CNCc2cccc(Cl)c2)[C@@H](O)[C@H]1O)N1CCCC1 [CBK288914] | 140.986%
COc1ccc([C@@]23CC[C@@H](NC(=O)Nc4ccc(Cl)cc4[N+](=O)[O-])C[C@@H]2N(C)CC3)cc1OC [CBK036474T] | 102.994%
COc1cc(/C=N/NC(=O)c2cccc([N+](=O)[O-])c2)cc(OC)c1O [CBK262172] | 114.586%
c1cncc(COc2ccnc(N3CCCN(Cc4ccc5c(c4)OCO5)CC3)n2)c1 [CBK084112] | 116.772%
